Source: publication PMC8338941, “Puf6 primes 60S pre-ribosome nuclear export at low temperature”
Results are given in words; binding and its absence hold for the method and conditions named. In cells and extracts the contact can be indirect. These calls come from enrichment with a bait or labelling near it, and not all partners need be listed.

Chains of the proteins cited; added tags and fusions are not shown.
UniProt Q04373: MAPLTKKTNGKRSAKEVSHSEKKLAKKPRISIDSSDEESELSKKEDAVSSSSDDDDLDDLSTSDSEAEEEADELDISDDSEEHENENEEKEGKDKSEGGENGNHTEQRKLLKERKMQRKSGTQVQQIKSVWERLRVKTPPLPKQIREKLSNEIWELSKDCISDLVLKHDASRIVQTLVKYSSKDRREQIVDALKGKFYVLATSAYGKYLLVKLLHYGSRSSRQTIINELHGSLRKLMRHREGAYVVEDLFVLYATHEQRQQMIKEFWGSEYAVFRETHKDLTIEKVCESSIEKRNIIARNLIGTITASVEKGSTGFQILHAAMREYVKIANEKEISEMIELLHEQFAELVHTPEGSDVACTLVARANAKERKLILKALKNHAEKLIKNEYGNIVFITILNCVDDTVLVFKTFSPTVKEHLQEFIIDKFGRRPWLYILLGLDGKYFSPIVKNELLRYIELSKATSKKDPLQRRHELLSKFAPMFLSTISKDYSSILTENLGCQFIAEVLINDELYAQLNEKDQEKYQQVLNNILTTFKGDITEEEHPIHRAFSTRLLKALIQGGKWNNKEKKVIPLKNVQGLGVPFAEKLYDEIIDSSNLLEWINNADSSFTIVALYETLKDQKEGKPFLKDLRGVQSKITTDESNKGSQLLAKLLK
UniProt Q05022: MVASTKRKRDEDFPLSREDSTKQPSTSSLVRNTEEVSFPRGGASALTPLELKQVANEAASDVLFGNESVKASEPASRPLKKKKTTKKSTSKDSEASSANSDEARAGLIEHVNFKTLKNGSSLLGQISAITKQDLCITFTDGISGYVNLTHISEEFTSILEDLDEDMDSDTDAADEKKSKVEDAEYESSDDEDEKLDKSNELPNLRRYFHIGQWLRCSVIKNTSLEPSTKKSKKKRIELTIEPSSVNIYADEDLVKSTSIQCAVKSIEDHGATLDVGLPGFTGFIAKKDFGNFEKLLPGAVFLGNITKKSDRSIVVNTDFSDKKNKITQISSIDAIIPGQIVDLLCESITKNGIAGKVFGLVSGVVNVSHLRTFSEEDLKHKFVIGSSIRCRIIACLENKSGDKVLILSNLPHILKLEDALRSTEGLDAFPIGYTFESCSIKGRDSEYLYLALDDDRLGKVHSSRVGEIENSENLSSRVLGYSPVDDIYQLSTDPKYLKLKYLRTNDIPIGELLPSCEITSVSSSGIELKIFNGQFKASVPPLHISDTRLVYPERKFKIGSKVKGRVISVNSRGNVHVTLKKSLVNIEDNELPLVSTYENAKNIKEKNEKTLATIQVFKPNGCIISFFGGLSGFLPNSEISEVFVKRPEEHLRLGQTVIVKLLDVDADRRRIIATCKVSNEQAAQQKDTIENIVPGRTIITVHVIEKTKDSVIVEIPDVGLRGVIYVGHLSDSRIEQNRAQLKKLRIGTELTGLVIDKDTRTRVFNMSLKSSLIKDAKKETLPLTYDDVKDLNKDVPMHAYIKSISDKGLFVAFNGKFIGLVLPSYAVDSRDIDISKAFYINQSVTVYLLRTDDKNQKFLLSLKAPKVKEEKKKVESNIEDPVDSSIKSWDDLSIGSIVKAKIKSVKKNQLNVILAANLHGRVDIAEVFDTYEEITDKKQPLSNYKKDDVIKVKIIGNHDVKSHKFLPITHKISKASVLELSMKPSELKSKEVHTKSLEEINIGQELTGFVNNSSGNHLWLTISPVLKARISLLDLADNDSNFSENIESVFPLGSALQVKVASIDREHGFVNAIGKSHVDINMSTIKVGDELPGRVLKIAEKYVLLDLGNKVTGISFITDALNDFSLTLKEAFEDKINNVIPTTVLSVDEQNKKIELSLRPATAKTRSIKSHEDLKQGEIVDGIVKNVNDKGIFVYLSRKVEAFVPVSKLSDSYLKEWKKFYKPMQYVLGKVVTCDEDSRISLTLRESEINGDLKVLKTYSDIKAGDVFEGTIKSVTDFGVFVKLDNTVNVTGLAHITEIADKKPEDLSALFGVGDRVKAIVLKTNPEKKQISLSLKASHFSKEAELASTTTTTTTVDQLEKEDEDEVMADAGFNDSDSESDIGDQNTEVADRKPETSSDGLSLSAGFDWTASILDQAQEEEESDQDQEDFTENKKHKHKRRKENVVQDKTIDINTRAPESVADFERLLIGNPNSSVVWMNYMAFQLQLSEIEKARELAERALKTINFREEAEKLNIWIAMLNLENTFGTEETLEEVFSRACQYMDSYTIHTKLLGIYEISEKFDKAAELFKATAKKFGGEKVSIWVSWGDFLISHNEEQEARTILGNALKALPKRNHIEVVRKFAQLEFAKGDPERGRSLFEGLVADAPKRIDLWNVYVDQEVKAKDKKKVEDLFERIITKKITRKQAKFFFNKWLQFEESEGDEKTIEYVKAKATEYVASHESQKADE
UniProt P34241: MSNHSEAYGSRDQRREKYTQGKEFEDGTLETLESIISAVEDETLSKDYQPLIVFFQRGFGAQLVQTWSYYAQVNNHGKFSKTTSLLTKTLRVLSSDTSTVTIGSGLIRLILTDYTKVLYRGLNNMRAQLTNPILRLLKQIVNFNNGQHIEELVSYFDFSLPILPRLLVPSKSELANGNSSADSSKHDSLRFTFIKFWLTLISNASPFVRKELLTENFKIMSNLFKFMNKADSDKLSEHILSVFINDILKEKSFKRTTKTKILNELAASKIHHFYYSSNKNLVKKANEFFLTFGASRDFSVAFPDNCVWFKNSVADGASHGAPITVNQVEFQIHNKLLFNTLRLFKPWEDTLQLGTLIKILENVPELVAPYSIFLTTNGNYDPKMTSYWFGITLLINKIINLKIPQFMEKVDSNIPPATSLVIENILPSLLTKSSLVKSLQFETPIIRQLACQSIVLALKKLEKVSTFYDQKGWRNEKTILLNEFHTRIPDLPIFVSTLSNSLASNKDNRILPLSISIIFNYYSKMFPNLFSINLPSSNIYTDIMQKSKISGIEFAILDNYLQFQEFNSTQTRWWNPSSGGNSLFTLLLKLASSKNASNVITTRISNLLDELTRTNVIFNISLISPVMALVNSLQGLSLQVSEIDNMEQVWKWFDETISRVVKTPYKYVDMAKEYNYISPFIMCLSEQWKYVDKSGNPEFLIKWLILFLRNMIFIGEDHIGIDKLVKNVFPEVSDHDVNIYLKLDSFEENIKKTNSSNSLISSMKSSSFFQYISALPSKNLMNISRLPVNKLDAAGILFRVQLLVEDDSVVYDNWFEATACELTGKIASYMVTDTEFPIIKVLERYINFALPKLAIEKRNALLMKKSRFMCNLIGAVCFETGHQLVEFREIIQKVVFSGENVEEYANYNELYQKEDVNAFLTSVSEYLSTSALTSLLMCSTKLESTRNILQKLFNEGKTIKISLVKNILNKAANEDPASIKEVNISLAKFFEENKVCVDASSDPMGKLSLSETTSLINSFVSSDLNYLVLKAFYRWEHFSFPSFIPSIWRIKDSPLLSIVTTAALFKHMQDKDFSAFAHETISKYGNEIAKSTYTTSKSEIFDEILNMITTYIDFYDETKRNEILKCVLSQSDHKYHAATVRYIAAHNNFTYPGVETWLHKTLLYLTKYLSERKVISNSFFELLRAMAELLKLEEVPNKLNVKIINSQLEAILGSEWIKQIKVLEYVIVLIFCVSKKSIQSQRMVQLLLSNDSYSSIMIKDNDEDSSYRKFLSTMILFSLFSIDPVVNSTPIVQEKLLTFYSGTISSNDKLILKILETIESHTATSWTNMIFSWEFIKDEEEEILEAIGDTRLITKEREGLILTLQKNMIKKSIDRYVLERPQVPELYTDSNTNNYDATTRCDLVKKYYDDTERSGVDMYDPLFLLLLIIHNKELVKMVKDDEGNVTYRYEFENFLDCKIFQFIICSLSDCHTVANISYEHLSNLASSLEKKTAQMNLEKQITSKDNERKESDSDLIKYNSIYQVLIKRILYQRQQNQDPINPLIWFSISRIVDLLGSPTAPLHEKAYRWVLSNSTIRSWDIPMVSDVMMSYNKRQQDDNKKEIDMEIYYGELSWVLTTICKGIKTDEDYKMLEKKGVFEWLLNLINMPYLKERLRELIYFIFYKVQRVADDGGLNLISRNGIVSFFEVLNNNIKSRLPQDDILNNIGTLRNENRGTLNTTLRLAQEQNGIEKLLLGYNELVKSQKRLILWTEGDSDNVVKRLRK

B1: Rrp1 (protein, UniProt P35178 1-278)
chain: METSNFVKQLSSNNRKTRVNALEALKKYLTAKQFKENKQIEFNKLWKGLYYAMWFSDRPRPQQRLANELGELHGLYFDPKDNSTADELTTNDKAFIKFSRGFWKVMCFEWFNIDRYRLDKYLLLIRRVLFSQLKYLQSRNWDKKLVDEYIKKVLRWLPLSGSPKVYTGIPIHIVDILLDEWERLLKDGDEDDEDEENKEEEMRKIAESAKKTPLADVIAIFQDIVADYNNSKVLREKIKEDLFSDTRLVSWDILEGETQHNDSSNESEEEEEEEWKGF
B2: Noc1 (protein, UniProt Q12176 1-1025)
chain: MSENNGNPLDLSSLRNKISSKLRDNNSKKAKKTHKGKDVKASSNSKKVNEDIRREALALGASEEDLKLIQGLSDDDDAKSEQEFDAVADEDADDKGFKNDLQNFMKNVGFDQHKLEDVDDDDIEEESTSSKESKIPAQEKEHAQSNIASSTIEKTSQESIDNGSEQEENTVEEANLSSDQEPESESAEKEKKEEKDGGLITQTTIISSDKLIIPYDKPWYEIPLDPQVGQNDDVEELSKEQIEKLFERGKQTLEADNQTYYEEFTKDSSQAKFMSQILSDGTLNDKISAVTLLIQDSPLHNTKSLETLVSYCGKKSRNSALQSLNALKDLFLNGLLPNRKLRYFKNQPGLSMMLNKKTLAIFYFEDYLKKLFFRVLEVLEVLSHDPIIHVRLQILNHVFDLLTNQPEQEFNLLRLGVNKIGDIDSKVSSKASYLLLKLEQAHPNMKSIVIDAIVDIALRPNADYHTTYYSVITLNQTILKRSEDSVANKLVKTYFTLFEKFLINTDKDNTNGVVKSNSKSYEEKRKKNFKKGKHGGKSVKIEKTENEVLDEKNSKLFSALLTGINRAFPFAQIPASVYEVHMETLFKITHSSNFNTSIQALVLINQVTVKAKLNSDRYYRTLYESLFDPRLVNSSKQGIYLNLLYKSLKQDALNVERVEAFVKRILQVCSHWLNVGTITGFFFLLIQLAKTVPQIKNLLTNTPVDYEYESDAEEEQGDKDIKRKEYDGRKRDPKFANAEKSSLWEINNFINHFHPTVKTYANAYVTGETEQIAKPDLGLFTLSHFLDRFVYRSAKQTNTARGTSIMQPLFSGSRVNDSVLVKASDIMHDQGPVNTEDWLTKKVEDIKPEDKFFYQYFTTKKTADGKGKKSNKASNFDSDDEMDENEIWSALVKSRPDVEDDSDDSELDFAEDDFSDSTSDDEPKLDAIDDEDAKSEGSQESDQEEGLDEDIFYSFDGEQDNSDKKRSFAESSEEDESSEEEKEEEENKEVSAKRAKKKQRKNMLKSLPVFASADDYAQYLDQDSD
B3: Mak11 (protein, UniProt P20484 1-414)
chain: MSAIGDKNQFRIIVGSYEHNILCLSLDIPNQKENDAAKTPHFMPIFHFQAHSLSIKCLAVSRRYLVSGSNDEHIRIYDLQKRKELGTLLSHQGSITALQFSHPASSSEDAAVSKGSKNSKWLLSASEDHKIMVWRVKDWETVGTLKGHTARVNDVDIHPTNRIAISVSDDHSIRLWNLMTLRNAAVLKLRKYNTNGTCVRWLGAKGDYFAVGLRDRVLIYETGSAKVFKEIVFQRKTLMHIETHILPFDNKEYLSVGISDGNVHFYPCEELFEKVEENEKQEDDDDKEDISPAFSLLGHTNRIKDFKFYTNEFGTYLVTIGSDGKIVVWDMSTKEQVAVYDCGERLNCLTLCDESIEKYNTMKKRDAETADIGDQSEVESDTEELKKIMFGEKKKLNKKKRKQLKKSKVSVELE

Target: Puf6-TAP (S. cerevisiae) (UniProt Q04373)
Assay: affinity purification with mass spectrometry; Puf6-TAP particle separated on a NuPAGE 4-12% Bis-Tris gradient gel, Silver staining; indicated proteins identified by mass spectrometry

binding, binds:
Rrp5 (from UniProt Q05022 1-1729), Urb1 (from UniProt P34241 1-1764), B1, B2, B3
